Experimental data published in patent US9249115B2, “N,N1 substituted piperazines having combined antiaggregant, anticoagulant and vasodilatory activity, and method for producing same” (Vertex Closed Joint Stock Company, priority 2011, dated 2016).
At least one compound was matched to its structure with a doubt left.

Test system: thrombocyte depleted plasm coagulation
Assay: Activated partial thromboplastin time (APTT), anticoagulant properties
Assay type: biochemical, human
Details: for APTT: thrombocyte depleted plasm
Experimental: The study of antiaggregant and anticoagulant properties of N,N′-substituted piperazines on the sample of donor human blood. The blood was collected by donor ulnar vein punction with dry sharp needle without syringe. The administration of drugs that influence on thrombocyte function was cancelled in 7÷10 days before the experiment.
In graduated plastic centrifuge tube 1 ml of 3.8% basic trisodium citrate solution with pH=7.4 was placed. The ulnar vein was punctuated, the freely effluent blood was collected up to 10 ml mark, the mixture was instantly stirred to prevent air bubbles appearance. The collected and stabilized blood was split in two 5 ml portions in two tubes.
To obtain thrombocyte enriched plasm the stabilized blood was spinned at 1000 rpm (150 g) for 8 min at room temperature. The repeated spinning of the blood at 3200 rpm (2300 g) for 20 min at 22° C. yielded thrombocyte depleted plasm.
To study anticoagulant properties of N,N′-substituted piperazines activated partial thromboplastin time (APTT) was measured. That is the ability of N,N′-substituted piperazines to increase thrombocyte depleted plasm coagulation time compared to the ability of control sample. The set of reagents for APTT determination (Russian Scientific Research Institute of Hematology and Transfusiology Ministry of Health of Russian Federation by Technical Regulation 9398-214-01966456-99) and COAG-A-MATE® XM coagulometer (ORGANON TEKNIKA, USA) were used.
The solutions of N,N′-substituted piperazines were mixed with thrombocyte depleted plasm at 1:1 ratio, then 0.1 ml of APTT reagent was added, the mixture was incubated in the cuvette for 5 min at 37° C., then 0.1 ml of 0.277% CaCl2 solution was added. The time of coagulation (in seconds) was measured.

SMILES: COc1ccc(CN2CCN(CC(O)CS(=O)(=O)[O-])CC2)c(OC)c1OC.[Na+] (stereo not drawn) [Example 3, 3-(1-(2,3,4-trimethoxybenzyl)piperazine-4-yl)-2-hydroxy-1-propanesulfonic acid sodium salt]
- (APTTx-APTT0): APTT0 * 100% (1.7 mmol/L): 3.4%
- APTT (1.7 mmol/L): 55.7 ± 3.2 s
- (APTTx-APTT0): APTT0 * 100% (2.5 mmol/L): 8.6%
- APTT (2.5 mmol/L): 58.3 ± 5.0 s
- (APTTx-APTT0): APTT0 * 100% (4.1 mmol/L): 19.7%
- APTT (4.1 mmol/L): 64.3 ± 3.7 s
- (APTTx-APTT0): APTT0 * 100% (6.3 mmol/L): 36.7%
- APTT (6.3 mmol/L): 73.4 ± 3.9 s
- (APTTx-APTT0): APTT0 * 100% (8.3 mmol/L): 58.5%
- APTT (8.3 mmol/L): 85.1 ± 3.2 s
- (APTTx-APTT0): APTT0 * 100% (12.5 mmol/L): 105.0%
- APTT (12.5 mmol/L): 110.1 ± 15.0 s
